No constants are given. Whether binding was seen depends on the method and setting. In cells and extracts the contact can be indirect. Some entries that bind do so weakly or less than the wild type. Sequences can lack the tags named with a protein.

Chains of the proteins cited; added tags and fusions are not shown.
UniProt P61586: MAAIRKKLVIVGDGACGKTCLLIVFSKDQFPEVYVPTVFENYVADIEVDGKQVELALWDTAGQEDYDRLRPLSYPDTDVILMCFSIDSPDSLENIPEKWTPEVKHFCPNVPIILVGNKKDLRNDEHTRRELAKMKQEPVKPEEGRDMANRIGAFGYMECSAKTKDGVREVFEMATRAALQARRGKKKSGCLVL
UniProt O00327: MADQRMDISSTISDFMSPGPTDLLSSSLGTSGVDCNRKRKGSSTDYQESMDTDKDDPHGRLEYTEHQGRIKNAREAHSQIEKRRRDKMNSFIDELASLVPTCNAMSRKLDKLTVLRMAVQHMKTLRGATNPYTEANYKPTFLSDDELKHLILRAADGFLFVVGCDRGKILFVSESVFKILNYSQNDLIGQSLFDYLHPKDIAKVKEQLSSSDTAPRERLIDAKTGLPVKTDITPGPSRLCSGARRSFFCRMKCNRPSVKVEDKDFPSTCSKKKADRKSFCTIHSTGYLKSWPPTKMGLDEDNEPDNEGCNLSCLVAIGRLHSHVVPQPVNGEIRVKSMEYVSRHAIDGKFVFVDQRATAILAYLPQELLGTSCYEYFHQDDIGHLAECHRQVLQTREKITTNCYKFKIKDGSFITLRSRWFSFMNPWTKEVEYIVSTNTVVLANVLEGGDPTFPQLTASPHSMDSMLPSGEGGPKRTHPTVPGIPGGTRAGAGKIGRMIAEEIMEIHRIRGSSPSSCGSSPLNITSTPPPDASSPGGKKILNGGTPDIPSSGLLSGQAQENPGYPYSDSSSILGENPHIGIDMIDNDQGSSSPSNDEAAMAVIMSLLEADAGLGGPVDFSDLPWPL

Assay [1] has as its target FLAG-tagged RHOA, in vitro translated (RHOA-pcDNA3.1-FLAG) (UniProt P61586). The assay is described as follows: co-IP; CLOCK/BMAL1/RHOA coexpressed in vitro with the TNT system (30 °C, 1.5 h), translated proteins mixed in 200 μl lysis buffer; Co-IP with antibodies against BMAL1, CLOCK or RHOA.
Assay [2] shares this target. The assay is described as follows: co-IP; CLOCK/RhoGDI/RHOA and RhoGDI/BMAL1/RHOA coexpressed in vitro with the TNT system in separate reactions, translated proteins mixed in 200 μl lysis buffer; Co-IP with corresponding antibodies.
Assay [3] addresses HA-tagged BMAL1, in vitro translated (BMAL1-pcDNA3.1-HA) (UniProt O00327). The assay is described as follows: co-IP; CLOCK/BMAL1/RHOA coexpressed in vitro with the TNT system (30 °C, 1.5 h), translated proteins mixed in 200 μl lysis buffer; Co-IP with antibodies against BMAL1, CLOCK or RHOA.

“HA-tagged BMAL1, in vitro translated (BMAL1-pcDNA3.1-HA) (from UniProt O00327 1-626)”: the binding entry in assay [1] and in assay [2] was “binds” each time.

B1: HA-tagged CLOCK, in vitro translated (CLOCK-pcDNA3.1-HA) (protein, UniProt O15516 1-846)
chain: MLFTVSCSKMSSIVDRDDSSIFDGLVEEDDKDKAKRVSRNKSEKKRRDQFNVLIKELGSMLPGNARKMDKSTVLQKSIDFLRKHKEITAQSDASEIRQDWKPTFLSNEEFTQLMLEALDGFFLAIMTDGSIIYVSESVTSLLEHLPSDLVDQSIFNFIPEGEHSEVYKILSTHLLESDSLTPEYLKSKNQLEFCCHMLRGTIDPKEPSTYEYVKFIGNFKSLNSVSSSAHNGFEGTIQRTHRPSYEDRVCFVATVRLATPQFIKEMCTVEEPNEEFTSRHSLEWKFLFLDHRAPPIIGYLPFEVLGTSGYDYYHVDDLENLAKCHEHLMQYGKGKSCYYRFLTKGQQWIWLQTHYYITYHQWNSRPEFIVCTHTVVSYAEVRAERRRELGIEESLPETAADKSQDSGSDNRINTVSLKEALERFDHSPTPSASSRSSRKSSHTAVSDPSSTPTKIPTDTSTPPRQHLPAHEKMVQRRSSFSSQSINSQSVGSSLTQPVMSQATNLPIPQGMSQFQFSAQLGAMQHLKDQLEQRTRMIEANIHRQQEELRKIQEQLQMVHGQGLQMFLQQSNPGLNFGSVQLSSGNSSNIQQLAPINMQGQVVPTNQIQSGMNTGHIGTTQHMIQQQTLQSTSTQSQQNVLSGHSQQTSLPSQTQSTLTAPLYNTMVISQPAAGSMVQIPSSMPQNSTQSAAVTTFTQDRQIRFSQGQQLVTKLVTAPVACGAVMVPSTMLMGQVVTAYPTFATQQQQSQTLSVTQQQQQQSSQEQQLTSVQQPSQAQLTQPPQQFLQTSRLLHGNPSTQLILSAAFPLQQSTFPQSHHQQHQSQQQQQLSRHRTDSLPDPSKVQPQ
As to B1, the binding entry in assay [1], in assay [3] and in assay [2] was “binds” in each case.

For the origin of these results see article PMC6172197.
